The target in test [1] is T1, Flag-tagged FBXO3 (UniProt Q9UK99).
T1 sequence: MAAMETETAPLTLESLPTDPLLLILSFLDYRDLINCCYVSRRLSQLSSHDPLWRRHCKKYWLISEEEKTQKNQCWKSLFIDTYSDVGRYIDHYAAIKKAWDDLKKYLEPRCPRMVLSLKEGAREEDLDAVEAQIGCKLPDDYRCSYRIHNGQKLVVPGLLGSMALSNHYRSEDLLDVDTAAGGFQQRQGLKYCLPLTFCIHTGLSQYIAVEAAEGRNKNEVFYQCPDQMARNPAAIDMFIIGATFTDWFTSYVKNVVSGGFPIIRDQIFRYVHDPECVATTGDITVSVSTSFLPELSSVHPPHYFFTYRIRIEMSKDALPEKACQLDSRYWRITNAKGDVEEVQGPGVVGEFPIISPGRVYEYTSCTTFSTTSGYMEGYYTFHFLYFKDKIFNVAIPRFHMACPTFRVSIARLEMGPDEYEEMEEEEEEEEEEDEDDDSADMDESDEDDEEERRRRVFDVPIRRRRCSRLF
Briefly: co-IP.

The chains behind the UniProt entries cited, without tags or fusion partners.
UniProt Q13309: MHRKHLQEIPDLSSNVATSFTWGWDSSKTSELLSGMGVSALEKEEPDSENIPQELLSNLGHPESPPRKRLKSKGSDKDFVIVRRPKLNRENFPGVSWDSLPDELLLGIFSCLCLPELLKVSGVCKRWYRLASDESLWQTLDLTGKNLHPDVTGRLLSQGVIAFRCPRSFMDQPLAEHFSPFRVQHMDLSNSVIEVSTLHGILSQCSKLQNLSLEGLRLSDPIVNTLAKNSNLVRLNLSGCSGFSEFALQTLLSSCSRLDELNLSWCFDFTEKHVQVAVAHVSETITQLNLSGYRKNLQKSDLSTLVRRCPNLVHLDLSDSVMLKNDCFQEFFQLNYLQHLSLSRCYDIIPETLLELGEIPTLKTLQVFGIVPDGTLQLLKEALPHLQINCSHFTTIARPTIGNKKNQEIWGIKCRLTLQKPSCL

The target in test [2] is Flag-tagged SKP2 (UniProt Q13309). The experiment in a line: co-IP.

These are yes or no findings as the source states them, for the method shown. Binding seen in cells or lysates may run through a third protein. For some assays here: Where a sequence is shown, tags or fusion partners need not be part of it.

B1: MST2 (endogenous, HEK293T cells) (protein, UniProt Q13188-1 1-491)
chain: MEQPPAPKSKLKKLSEDSLTKQPEEVFDVLEKLGEGSYGSVFKAIHKESGQVVAIKQVPVESDLQEIIKEISIMQQCDSPYVVKYYGSYFKNTDLWIVMEYCGAGSVSDIIRLRNKTLIEDEIATILKSTLKGLEYLHFMRKIHRDIKAGNILLNTEGHAKLADFGVAGQLTDTMAKRNTVIGTPFWMAPEVIQEIGYNCVADIWSLGITSIEMAEGKPPYADIHPMRAIFMIPTNPPPTFRKPELWSDDFTDFVKKCLVKNPEQRATATQLLQHPFIKNAKPVSILRDLITEAMEIKAKRHEEQQRELEEEEENSDEDELDSHTMVKTSVESVGTMRATSTMSEGAQTMIEHNSTMLESDLGTMVINSEDEEEEDGTMKRNATSPQVQRPSFMDYFDKQDFKNKSHENCNQNMHEPFPMSKNVFPDNWKVPQDGDFDFLKNLSLEELQMRLKALDPMMEREIEELRQRYTAKRQPILDAMDAKKRRQQNF
In the case of B1, the binding result in test [1] and in test [2] was “no binding” in each case.

Source of the values: publication doi:10.1101/2021.01.31.429078.
